These are yes or no findings as the source states them, for the method shown. For part of these data: Binding seen in cells or lysates may run through a third protein. Some entries that bind do so weakly or less than the wild type. For part of these data: Sequences can lack the tags named with a protein.
T1: CAT2-F143V, in pGBKT7 (Arabidopsis thaliana) (UniProt P25819)
T1 sequence: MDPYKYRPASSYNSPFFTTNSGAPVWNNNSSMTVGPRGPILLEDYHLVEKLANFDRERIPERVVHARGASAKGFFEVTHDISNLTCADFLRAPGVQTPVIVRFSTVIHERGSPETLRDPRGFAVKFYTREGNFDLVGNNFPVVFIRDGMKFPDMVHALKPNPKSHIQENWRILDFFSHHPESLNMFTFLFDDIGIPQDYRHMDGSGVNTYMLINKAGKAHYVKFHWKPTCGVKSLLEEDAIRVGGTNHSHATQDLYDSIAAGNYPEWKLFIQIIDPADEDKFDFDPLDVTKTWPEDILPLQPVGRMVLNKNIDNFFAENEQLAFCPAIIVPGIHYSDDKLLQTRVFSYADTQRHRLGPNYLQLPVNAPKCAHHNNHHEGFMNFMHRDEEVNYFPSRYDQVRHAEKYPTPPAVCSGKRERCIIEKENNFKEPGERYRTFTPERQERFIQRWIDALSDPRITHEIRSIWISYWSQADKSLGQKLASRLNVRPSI

T2: CAT2-H65A, in pGBKT7 (Arabidopsis thaliana) (UniProt P25819)
T2 sequence: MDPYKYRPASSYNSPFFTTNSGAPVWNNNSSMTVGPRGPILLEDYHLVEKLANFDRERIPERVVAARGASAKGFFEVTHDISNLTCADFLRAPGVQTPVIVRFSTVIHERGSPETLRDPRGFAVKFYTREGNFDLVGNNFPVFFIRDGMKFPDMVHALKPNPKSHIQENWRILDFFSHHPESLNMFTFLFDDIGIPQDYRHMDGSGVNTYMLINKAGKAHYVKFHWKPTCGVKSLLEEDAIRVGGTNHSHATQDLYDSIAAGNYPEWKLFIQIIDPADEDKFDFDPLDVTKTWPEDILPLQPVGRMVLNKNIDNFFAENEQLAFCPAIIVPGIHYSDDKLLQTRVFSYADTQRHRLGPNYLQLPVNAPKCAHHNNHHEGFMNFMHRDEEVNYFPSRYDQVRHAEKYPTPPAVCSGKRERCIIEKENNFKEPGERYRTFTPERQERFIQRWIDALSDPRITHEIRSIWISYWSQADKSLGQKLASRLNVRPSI

T3: CAT2-V106A, in pGBKT7 (Arabidopsis thaliana) (UniProt P25819)
T3 sequence: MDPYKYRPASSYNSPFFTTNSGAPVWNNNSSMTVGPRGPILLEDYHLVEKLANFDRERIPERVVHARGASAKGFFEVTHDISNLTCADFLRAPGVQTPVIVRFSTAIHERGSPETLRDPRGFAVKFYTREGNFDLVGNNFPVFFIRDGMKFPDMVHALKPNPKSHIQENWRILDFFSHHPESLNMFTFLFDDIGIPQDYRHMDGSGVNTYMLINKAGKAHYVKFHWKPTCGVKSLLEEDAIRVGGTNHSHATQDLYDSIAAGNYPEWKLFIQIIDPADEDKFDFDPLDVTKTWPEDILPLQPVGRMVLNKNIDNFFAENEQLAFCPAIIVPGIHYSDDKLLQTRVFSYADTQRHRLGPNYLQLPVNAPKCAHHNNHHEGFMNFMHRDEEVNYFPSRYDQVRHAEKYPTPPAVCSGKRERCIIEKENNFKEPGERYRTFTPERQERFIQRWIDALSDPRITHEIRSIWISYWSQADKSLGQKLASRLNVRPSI

T4: CAT2-Y348V, in pGBKT7 (Arabidopsis thaliana) (UniProt P25819)
T4 sequence: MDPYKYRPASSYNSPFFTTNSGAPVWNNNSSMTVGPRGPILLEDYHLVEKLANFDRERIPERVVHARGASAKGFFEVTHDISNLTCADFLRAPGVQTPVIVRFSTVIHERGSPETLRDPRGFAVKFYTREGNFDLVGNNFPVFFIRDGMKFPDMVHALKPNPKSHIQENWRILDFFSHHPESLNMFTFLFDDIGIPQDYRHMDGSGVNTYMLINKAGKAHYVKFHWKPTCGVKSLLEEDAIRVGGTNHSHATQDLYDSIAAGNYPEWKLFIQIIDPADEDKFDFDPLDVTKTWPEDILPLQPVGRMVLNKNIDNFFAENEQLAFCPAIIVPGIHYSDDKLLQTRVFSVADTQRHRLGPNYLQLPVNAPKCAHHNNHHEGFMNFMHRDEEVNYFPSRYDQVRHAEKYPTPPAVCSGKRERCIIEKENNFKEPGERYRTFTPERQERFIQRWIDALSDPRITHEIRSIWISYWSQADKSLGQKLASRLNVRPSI

T5: CATALASE2 (CAT2), full length, in pGBKT7 (Arabidopsis thaliana) (UniProt P25819)
T5 sequence: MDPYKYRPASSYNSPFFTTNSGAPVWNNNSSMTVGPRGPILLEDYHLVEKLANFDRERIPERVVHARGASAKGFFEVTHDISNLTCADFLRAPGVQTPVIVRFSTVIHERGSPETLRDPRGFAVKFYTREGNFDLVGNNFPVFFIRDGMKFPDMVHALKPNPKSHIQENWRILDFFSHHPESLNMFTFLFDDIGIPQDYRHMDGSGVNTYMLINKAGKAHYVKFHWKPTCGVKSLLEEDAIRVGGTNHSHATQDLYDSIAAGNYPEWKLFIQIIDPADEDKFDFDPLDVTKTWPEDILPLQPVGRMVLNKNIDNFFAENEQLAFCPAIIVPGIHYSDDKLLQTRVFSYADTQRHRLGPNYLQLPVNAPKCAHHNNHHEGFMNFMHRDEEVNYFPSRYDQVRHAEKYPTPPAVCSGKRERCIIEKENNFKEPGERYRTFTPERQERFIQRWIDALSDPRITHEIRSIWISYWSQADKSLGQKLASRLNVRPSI

T6: nYFP-tagged CAT2 (full length), BiFC construct in pSP-YNE (Arabidopsis) (UniProt P25819)
T6 sequence: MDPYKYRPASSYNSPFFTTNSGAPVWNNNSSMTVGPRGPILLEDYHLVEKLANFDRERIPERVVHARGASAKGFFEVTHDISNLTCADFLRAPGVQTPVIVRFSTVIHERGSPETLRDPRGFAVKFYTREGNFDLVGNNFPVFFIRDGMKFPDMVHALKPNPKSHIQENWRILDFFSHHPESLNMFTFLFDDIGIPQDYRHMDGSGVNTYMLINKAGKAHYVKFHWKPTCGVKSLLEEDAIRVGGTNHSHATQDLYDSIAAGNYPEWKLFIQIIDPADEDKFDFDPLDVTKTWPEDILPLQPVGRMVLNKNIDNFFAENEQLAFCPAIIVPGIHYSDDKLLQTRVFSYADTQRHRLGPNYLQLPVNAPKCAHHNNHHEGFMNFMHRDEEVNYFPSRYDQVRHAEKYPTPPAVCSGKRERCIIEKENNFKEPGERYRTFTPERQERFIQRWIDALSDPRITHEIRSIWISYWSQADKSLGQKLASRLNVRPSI


Key:
[1] = biological target: T1, CAT2-F143V, in pGBKT7 (Arabidopsis thaliana); test: two-hybrid; yeast two-hybrid; CAT2 forms in pGBKT7, ACX2 and ACX3 in pGADT7; growth of yeast as in Yuan et al., 2017
[2] = biological target: T2, CAT2-H65A, in pGBKT7 (Arabidopsis thaliana); test: as above
[3] = biological target: T3, CAT2-V106A, in pGBKT7 (Arabidopsis thaliana); test: as above
[4] = biological target: T4, CAT2-Y348V, in pGBKT7 (Arabidopsis thaliana); test: as above
[5] = biological target: T5, CATALASE2 (CAT2), full length, in pGBKT7 (Arabidopsis thaliana); test: as above
[6] = biological target: T6, nYFP-tagged CAT2 (full length), BiFC construct in pSP-YNE (Arabidopsis); test: split reporter; BiFC in N. benthamiana leaves; CAT2 forms in pSP-YNE (nYFP), ACX2 and ACX3 in pSP-YCE (cYFP); confocal microscopy three days after infiltration; mCherry-SKL marks the peroxisomes

binding [1] | binding [2] | binding [3] | binding [4] | binding [5] | binding [6] | Binder
binds | binds | binds | binds | binds |  | acyl-CoA oxidase 3 (ACX3), in pGADT7 (enzyme, UniProt P0CZ23 1-675) MSDNRALRRAHVLANHILQSNPPSSNPSLSRELCLQYSPPELNESYGFDVKEMRKLLDGHNVVDRDWIYGLMMQSNLFNRKERGGKIFVSPDYNQTMEQQREITMKRIWYLLENGVFKGWLTETGPEAELRKLALLEVCGIYDHSVSIKVGVHFFLWGNAVKFFGTKRHHEKWLKNTEDYVVKGCFAMTELGHGSNVRGIETVTTYDPKTEEFVINTPCESAQKYWIGGAANHATHTIVFSQLHINGTNQGVHAFIAQIRDQDGSICPNIRIADCGHKIGLNGVDNGRIWFDNLRIPRENLLNAVADVSSDGKYVSSIKDPDQRFGAFMAPLTSGRVTIASSAIYSAKVGLSIAIRYSLSRRAFSVTANGPEVLLLDYPSHQRRLLPLLAKTYAMSFAANELKMIYVKRTPETNKAIHVVSSGFKAVLTWHNMHTLQECREAVGGQGVKTENLVGQLKGEFDVQTTFEGDNNVLMQQVSKALFAEYVSCKKRNKPFKGLGLEHMNSPRPVLPTQLTSSTLRCSQFQTNVFCLRERDLLEQFTSEVAQLQGRGESREFSFLLSHQLAEDLGKAFTEKAILQTILDAEAKLPTGSVKDVLGLVRSMYALISLEEDPSLLRYGYLSQDNVGDVRREVSKLCGELRPHALALVTSFGIPDSFLSPIAFNWVEANAWSSV
binds | binds | binds | binds | binds |  | acyl-CoA oxidase 2 (ACX2), in pGADT7 (enzyme, UniProt O65201 1-692) MESRREKNPMTEEESDGLIAARRIQRLSLHLSPSLTPSPSLPLVQTETCSARSKKLDVNGEALSLYMRGKHIDIQEKIFDFFNSRPDLQTPIEISKDDHRELCMNQLIGLVREAGVRPFRYVADDPEKYFAIMEAVGSVDMSLGIKMGVQYSLWGGSVINLGTKKHRDKYFDGIDNLDYTGCFAMTELHHGSNVQGLQTTATFDPLKDEFVIDTPNDGAIKWWIGNAAVHGKFATVFARLILPTHDSKGVSDMGVHAFIVPIRDMKTHQTLPGVEIQDCGHKVGLNGVDNGALRFRSVRIPRDNLLNRFGDVSRDGTYTSSLPTINKRFGATLGELVGGRVGLAYASVGVLKISATIAIRYSLLRQQFGPPKQPEVSILDYQSQQHKLMPMLASTYAYHFATVYLVEKYSEMKKTHDEQLVADVHALSAGLKSYVTSYTAKALSVCREACGGHGYAAVNRFGSLRNDHDIFQTFEGDNTVLLQQVAADLLKRYKEKFQGGTLTVTWSYLRESMNTYLSQPNPVTARWEGEDHLRDPKFQLDAFRYRTSRLLQNVAARLQKHSKTLGGFGAWNRCLNHLLTLAESHIETVILAKFIEAVKNCPDPSAKAALKLACDLYALDRIWKDIGTYRNVDYVAPNKAKAIHKLTEYLSFQVRNVAKELVDAFELPDHVTRAPIAMQSDAYSQYTQVVGF
 |  |  |  |  | binds | cYFP-tagged ACX2, BiFC construct in pSP-YCE (enzyme, UniProt O65201 50-692) SARSKKLDVNGEALSLYMRGKHIDIQEKIFDFFNSRPDLQTPIEISKDDHRELCMNQLIGLVREAGVRPFRYVADDPEKYFAIMEAVGSVDMSLGIKMGVQYSLWGGSVINLGTKKHRDKYFDGIDNLDYTGCFAMTELHHGSNVQGLQTTATFDPLKDEFVIDTPNDGAIKWWIGNAAVHGKFATVFARLILPTHDSKGVSDMGVHAFIVPIRDMKTHQTLPGVEIQDCGHKVGLNGVDNGALRFRSVRIPRDNLLNRFGDVSRDGTYTSSLPTINKRFGATLGELVGGRVGLAYASVGVLKISATIAIRYSLLRQQFGPPKQPEVSILDYQSQQHKLMPMLASTYAYHFATVYLVEKYSEMKKTHDEQLVADVHALSAGLKSYVTSYTAKALSVCREACGGHGYAAVNRFGSLRNDHDIFQTFEGDNTVLLQQVAADLLKRYKEKFQGGTLTVTWSYLRESMNTYLSQPNPVTARWEGEDHLRDPKFQLDAFRYRTSRLLQNVAARLQKHSKTLGGFGAWNRCLNHLLTLAESHIETVILAKFIEAVKNCPDPSAKAALKLACDLYALDRIWKDIGTYRNVDYVAPNKAKAIHKLTEYLSFQVRNVAKELVDAFELPDHVTRAPIAMQSDAYSQYTQVVGF
 |  |  |  |  | binds | cYFP-tagged ACX3, BiFC construct in pSP-YCE (enzyme, UniProt P0CZ23 35-675) LQYSPPELNESYGFDVKEMRKLLDGHNVVDRDWIYGLMMQSNLFNRKERGGKIFVSPDYNQTMEQQREITMKRIWYLLENGVFKGWLTETGPEAELRKLALLEVCGIYDHSVSIKVGVHFFLWGNAVKFFGTKRHHEKWLKNTEDYVVKGCFAMTELGHGSNVRGIETVTTYDPKTEEFVINTPCESAQKYWIGGAANHATHTIVFSQLHINGTNQGVHAFIAQIRDQDGSICPNIRIADCGHKIGLNGVDNGRIWFDNLRIPRENLLNAVADVSSDGKYVSSIKDPDQRFGAFMAPLTSGRVTIASSAIYSAKVGLSIAIRYSLSRRAFSVTANGPEVLLLDYPSHQRRLLPLLAKTYAMSFAANELKMIYVKRTPETNKAIHVVSSGFKAVLTWHNMHTLQECREAVGGQGVKTENLVGQLKGEFDVQTTFEGDNNVLMQQVSKALFAEYVSCKKRNKPFKGLGLEHMNSPRPVLPTQLTSSTLRCSQFQTNVFCLRERDLLEQFTSEVAQLQGRGESREFSFLLSHQLAEDLGKAFTEKAILQTILDAEAKLPTGSVKDVLGLVRSMYALISLEEDPSLLRYGYLSQDNVGDVRREVSKLCGELRPHALALVTSFGIPDSFLSPIAFNWVEANAWSSV
